The source of these data is PMC5685703.

Chains of the proteins cited; added tags and fusions are not shown. Lines headed by an entry give the natural chain unless they say otherwise; changes in a name come on top.
UniProt P35226: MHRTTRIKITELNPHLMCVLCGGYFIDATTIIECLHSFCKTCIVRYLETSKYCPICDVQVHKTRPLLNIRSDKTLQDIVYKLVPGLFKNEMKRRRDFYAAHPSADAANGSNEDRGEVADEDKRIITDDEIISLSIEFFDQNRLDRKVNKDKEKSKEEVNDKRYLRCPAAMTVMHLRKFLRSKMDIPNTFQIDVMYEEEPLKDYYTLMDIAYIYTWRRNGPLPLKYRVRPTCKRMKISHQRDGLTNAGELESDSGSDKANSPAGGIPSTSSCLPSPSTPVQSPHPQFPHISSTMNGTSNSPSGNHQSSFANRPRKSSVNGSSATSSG
UniProt Q13535: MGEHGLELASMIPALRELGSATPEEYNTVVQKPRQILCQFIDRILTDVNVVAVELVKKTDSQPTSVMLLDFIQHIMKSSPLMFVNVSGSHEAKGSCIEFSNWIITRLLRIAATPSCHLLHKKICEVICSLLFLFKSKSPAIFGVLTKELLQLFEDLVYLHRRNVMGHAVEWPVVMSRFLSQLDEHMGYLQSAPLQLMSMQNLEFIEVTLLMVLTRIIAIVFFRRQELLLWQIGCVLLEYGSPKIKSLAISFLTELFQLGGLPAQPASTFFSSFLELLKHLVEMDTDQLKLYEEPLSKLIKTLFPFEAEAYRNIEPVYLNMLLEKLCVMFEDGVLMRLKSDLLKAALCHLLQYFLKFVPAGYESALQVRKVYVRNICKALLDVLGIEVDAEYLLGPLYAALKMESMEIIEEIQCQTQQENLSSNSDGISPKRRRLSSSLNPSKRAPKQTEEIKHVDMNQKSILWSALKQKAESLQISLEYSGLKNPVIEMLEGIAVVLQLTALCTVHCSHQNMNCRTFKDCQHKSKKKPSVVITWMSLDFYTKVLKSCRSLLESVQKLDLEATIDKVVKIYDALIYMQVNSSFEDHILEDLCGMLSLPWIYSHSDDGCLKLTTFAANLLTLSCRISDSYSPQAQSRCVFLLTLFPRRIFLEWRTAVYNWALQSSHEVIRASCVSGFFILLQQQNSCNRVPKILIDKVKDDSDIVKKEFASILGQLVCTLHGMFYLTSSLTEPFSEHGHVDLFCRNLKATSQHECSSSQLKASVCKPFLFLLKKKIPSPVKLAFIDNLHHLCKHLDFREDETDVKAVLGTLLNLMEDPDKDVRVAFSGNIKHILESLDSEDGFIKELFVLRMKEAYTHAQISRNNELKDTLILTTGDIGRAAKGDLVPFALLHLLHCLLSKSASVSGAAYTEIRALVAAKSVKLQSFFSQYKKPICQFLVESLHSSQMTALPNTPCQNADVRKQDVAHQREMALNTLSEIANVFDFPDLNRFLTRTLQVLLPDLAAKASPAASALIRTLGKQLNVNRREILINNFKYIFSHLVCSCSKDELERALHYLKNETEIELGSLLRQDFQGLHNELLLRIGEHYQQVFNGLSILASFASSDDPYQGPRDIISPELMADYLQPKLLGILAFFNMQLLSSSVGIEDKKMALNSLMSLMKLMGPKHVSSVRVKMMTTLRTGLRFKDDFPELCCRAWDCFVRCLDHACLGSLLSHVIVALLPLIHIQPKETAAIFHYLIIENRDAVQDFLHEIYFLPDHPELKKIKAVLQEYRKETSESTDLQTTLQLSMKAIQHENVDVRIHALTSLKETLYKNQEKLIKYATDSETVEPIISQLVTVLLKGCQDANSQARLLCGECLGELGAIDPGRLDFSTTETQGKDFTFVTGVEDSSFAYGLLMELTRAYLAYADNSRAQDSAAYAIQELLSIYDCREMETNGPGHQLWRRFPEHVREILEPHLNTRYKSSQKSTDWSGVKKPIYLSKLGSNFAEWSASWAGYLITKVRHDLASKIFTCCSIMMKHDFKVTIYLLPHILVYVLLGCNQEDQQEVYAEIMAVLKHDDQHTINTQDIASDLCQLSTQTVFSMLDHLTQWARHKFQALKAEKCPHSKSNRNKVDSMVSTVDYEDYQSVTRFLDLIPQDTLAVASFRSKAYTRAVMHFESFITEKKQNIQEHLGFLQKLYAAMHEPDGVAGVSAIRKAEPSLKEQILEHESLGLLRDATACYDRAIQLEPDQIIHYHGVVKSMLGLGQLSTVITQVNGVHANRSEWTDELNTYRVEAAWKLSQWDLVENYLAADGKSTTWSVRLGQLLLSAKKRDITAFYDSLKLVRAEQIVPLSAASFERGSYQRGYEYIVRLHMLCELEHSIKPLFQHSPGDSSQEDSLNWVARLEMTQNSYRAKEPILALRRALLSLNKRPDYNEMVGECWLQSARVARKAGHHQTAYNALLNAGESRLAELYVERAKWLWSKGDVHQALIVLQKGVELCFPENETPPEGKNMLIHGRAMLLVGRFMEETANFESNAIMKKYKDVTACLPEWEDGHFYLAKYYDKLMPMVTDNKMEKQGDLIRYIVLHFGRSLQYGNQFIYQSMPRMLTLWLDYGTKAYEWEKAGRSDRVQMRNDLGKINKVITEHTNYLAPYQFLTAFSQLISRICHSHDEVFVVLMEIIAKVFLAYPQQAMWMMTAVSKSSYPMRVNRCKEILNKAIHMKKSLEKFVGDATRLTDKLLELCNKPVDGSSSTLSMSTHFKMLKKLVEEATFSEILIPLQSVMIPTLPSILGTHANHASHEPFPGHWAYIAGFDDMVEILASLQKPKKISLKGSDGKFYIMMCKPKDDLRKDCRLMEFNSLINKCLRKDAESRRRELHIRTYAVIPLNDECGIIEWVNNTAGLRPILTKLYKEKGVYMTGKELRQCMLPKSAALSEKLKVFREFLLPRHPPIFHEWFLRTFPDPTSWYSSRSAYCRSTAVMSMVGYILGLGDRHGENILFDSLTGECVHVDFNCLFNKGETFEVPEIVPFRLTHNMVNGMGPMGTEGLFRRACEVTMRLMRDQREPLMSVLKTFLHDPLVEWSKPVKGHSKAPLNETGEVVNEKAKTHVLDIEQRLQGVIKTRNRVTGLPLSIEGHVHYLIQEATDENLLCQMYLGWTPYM

Results are given in words; binding and its absence hold for the method and conditions named. In cells and extracts the contact can be indirect. For some assays here: A result given as binding can be weak or reduced; the word gives no strength.

One test addresses BMI1ΔHT (UniProt P35226). Description: co-IP; MCF7 lines stably expressing FLAG-tagged BMI1 deletion mutants, without or with HU; lysates treated with benzonase 1 U/μl on ice for 1 hour; IP with monoclonal anti-FLAG (M2); Western blot for ATR, TOPBP1 and the mutants (polyclonal anti-FLAG). In general terms: Immunoblotting shows a protein as a band on a membrane.
The target of a further test is BMI1ΔNLS (UniProt P35226). Described as above.
In another test the target is BMI1ΔPS (UniProt P35226). The test is described as above.
For another test, the target named is BMI1ΔRF (UniProt P35226). Described as above.
For test [1], the target named is ATR (endogenous, MCF7 cells) (human (endogenous in MCF7)) (UniProt Q13535). The test is described as follows: co-IP; MCF7 BMI1ΔNLS cells; lysate treated with benzonase 1 U/μl on ice for 1 hour; IP with anti-ATR; Western blot with polyclonal anti-FLAG.

Regarding “ATR (endogenous, MCF7 cells) (from UniProt Q13535 1-2644)”, the binding result is “no binding” with BMI1ΔHT, “binds” with BMI1ΔNLS, “no binding” with BMI1ΔPS and “binds” with BMI1ΔRF.
Turning to BMI1ΔNLS (from UniProt P35226), the binding entry in test [1] is reported as “binds”.
